# Percent effect of library compounds

Source: ChEMBL document CHEMBL3988442, “University of Dundee, Small-Polar-MMV Screening Library” (2021).

Values are the deposited “Percent Effect”, in %.
The controls that fix the scale are not given in the record; negative values are as filed.
Compounds were drawn at random from those tested, without regard to their results.
A dash means the value is not listed here; it may have been measured.

A: 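Whole-parasite assay of Trypanosoma brucei over 72 hours; the read-out is not stated. Compounds at 30 µM. Higher reads as stronger inhibition (inferred: compounds with an IC50 in retests scored well above the rest). Values scatter widely below zero; nearly all retest evidence comes from the higher of the two concentrations used. Of about 64,000 compounds tested this way, about 940 (1.5%) reached 50% or more in at least one test.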
B: 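Assay of Toxoplasma gondii numbers, read through their beta-galactosidase reporter with a colour substrate. Compounds at 10 µM. The record gives no direction; the compounds picked for IC50 retests had high values, so higher reads as fewer parasites. Of about 67,000 compounds tested this way, about 260 (0.38%) reached 50% or more in at least one test.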

structure | A | B
O=C(O)C(F)(F)F.[H][C@]12CCC[C@@H](CNc3nccn3C)[C@@]1([H])CN(CC1CC1)C2 | -66.42 | -0.1618
[H][C@@]12CCN(CC3CCOCC3)C[C@]1([H])OCCN(c1ccccc1)C2=O | - | 8.615
CC[C@@H]1N(Cc2ccsc2)CCC[C@]12CCC(=O)N2C.O=C(O)C(F)(F)F | -20.53 | -0.6336
Cn1nc(C(=O)N2CCCC2)c2c1CN(CC1CCOCC1)C2 | -64.31 | 1.223
Cc1cc(S(=O)(=O)N2CCCc3ccc(F)cc32)sc1C(=O)O | 24 | -2.974
CCn1c(Cn2cncn2)nnc1C1CCN(CCN)CC1 | -38.21 | -0.8355
CCC/C=C/c1ccc(CN2CCCC2)cn1 | -4.054 | -32.83
CN1CCC(N(C)C(=O)CSc2ccc(F)c(F)c2)C1=O (centres unmarked) | -19.7 | 12.28
CNS(=O)(=O)c1cccc(C(=O)N(C)Cc2ccsc2)c1 | - | 14.28
CSCC(=O)NS(=O)(=O)c1ccc(C#N)c(C(F)(F)F)c1 | -52.83 | 36.79
CCc1c(C(=O)N2CCN(c3ncccn3)CC2)cnn1C(C)(C)C | 7.099 | 8.977
CCn1ncc2[nH]c(-c3cc(OC)c(OC)cc3OC)nc21 | -112.9 | 29.09
Cc1nc2c(c(NC3CCN(Cc4ccccc4)CC3)n1)CCNCC2 | 25.3 | 2.314
COc1ccccc1C(C)NC(=O)N1CCC(n2cncn2)CC1 (centres unmarked) | -7.29 | 5.137
O=C1CCC(=O)N1c1nn(Cc2ccc(F)cc2)cc1Cl | -25.63 | 0.2919
COc1ccc(CN2CCOC[C@H](OCCC(C)C)C2)cc1 | -7.887 | -0.07437
COCCn1cnc2ccc(NC(=O)CCCn3cccn3)cc2c1=O | -13.12 | -9.936
C[C@@H]1CN(S(=O)(=O)N2CCCC2)CC[C@@]1(O)C1CCOCC1 | -50.94 | 13.3
CC(C)c1noc(C(C)N2CCN(Cc3ccco3)CC2)n1 (centres unmarked) | 14.95 | 0.1883
O=C(Nc1cccc(Cl)c1)c1nn(C2CCS(=O)(=O)C2)c2c1CCCC2 (centres unmarked) | 73.39 | 1.458
COc1cccc(-c2nc(CNCCn3cccn3)cs2)c1 | -16.28 | -10.75
CC1CCCN(Cc2cccc(C(=O)Nc3nccs3)c2)C1 (centres unmarked) | 6.646 | -8.305
Cl.Cn1ccnc1CNC(=O)c1cncc(C2CCNCC2)n1 | -8.849 | 3.083
CCc1nc(C)c([C@H]2CN(C)C[C@@H]2C(=O)Nc2ccc(OC)nc2)[nH]1 | -20.41 | 11.66
Cc1nc2n(n1)CC(NCCC(=O)Nc1cc(C)on1)CC2 (centres unmarked) | -12.5 | 3.35
O=C(Nc1cc(-c2ccncc2)no1)C1CC1 | 17.25 | -5.347
O=C(c1ccc2cc[nH]c2c1)N1CCC(Nc2cccnn2)CC1 | 3.071 | -7.808
CN1CC(=O)N(c2cccnc2)CC12CCN(C(=O)C1CCCCC1)C2.O=C(O)C(F)(F)F.O=C(O)C(F)(F)F (centres unmarked) | -14.37 | 4.167
CN(C)C1CCN(C(=O)NCc2ccccc2Cn2cncn2)CC1 | 11.9 | -2.539
Cc1ccc(Cl)c2ccc(NC(CO)CO)nc12 | 12.14 | -2.409
Cc1ccoc1-c1nnc(CN2CCCC(Cn3cncn3)C2)o1 (centres unmarked) | -11.19 | -13.61
Cn1cnc2c1CCN(CC(=O)N(Cc1ccccc1F)C1CC1)C2 | -30.52 | 1.073
Cc1cnc(N2CCC3(CCCN(c4ncc(F)cn4)C3)C2)nc1 (centres unmarked) | -37.53 | -4
Cc1cnn(CCCNC(=O)NC(C)C(=O)Nc2ccccc2)c1 (centres unmarked) | -37.85 | -7.987
CCOCC(O)CN1CCN(C(=O)Cc2ccccc2C)CC1 (centres unmarked) | -27.69 | -15.95
CC(C)=CCC1(CO)CCCN(Cc2nccs2)C1 (centres unmarked) | -11.71 | 2.626
CC(C)N(CCNc1nc(C2CCCC2)nc2c1cnn2C)C(C)C | -27.76 | 6.254
COC(=O)c1cccn1C1CCN(S(=O)(=O)c2ccccc2)CC1 | - | 15.59
Cn1nccc1C(=O)N1CCCC1c1[nH]ncc1C(N)=O (centres unmarked) | -9.849 | -6.253
Cc1nc(C)n(CC2CN(Cc3cccc4ccccc34)CCO2)n1 (centres unmarked) | 20.23 | -3.215
Cc1cccc(N2CCCC3(C2)CN(S(C)(=O)=O)CCO3)c1 (centres unmarked) | -24.08 | 16.32
CN(C(=O)Nc1ccncc1)C1CCN(c2ccc(Cl)cc2)CC1 | -11.96 | 3.085
CO[C@@H]1CCN(C(=O)Cc2ccc(F)cc2)[C@@H]1Cc1cccnc1.O=C(O)C(F)(F)F | -10.6 | 11.8
O=C(CN(Cc1cccs1)C1CCS(=O)(=O)C1)NCC1CCCCC1 (centres unmarked) | -42.9 | 6.365
N#Cc1cn(CCCN2CCc3ccccc32)c(=O)[nH]c1=O | -19.05 | -7.856
CCc1c(C(=O)NCC(=O)OCC2CC2)cnn1-c1ccc(C)cc1 | 6.084 | -
[H][C@@]12CCCO[C@]1([H])[C@@H](OCC1CC1)CN2C(=O)c1occc1C | -102.6 | 6.038
CCc1nc(C2CCCN2Cc2cc(=O)n(C)c(=O)n2C)no1 (centres unmarked) | 1.46 | 2.408
CN(c1ncnc2ccccc12)C1CCCN(c2cccnn2)C1 (centres unmarked) | -20.2 | 5.918
CC(c1cccc(-c2ncccc2C#N)c1)N(C)C (centres unmarked) | 0.02569 | 4.806
O=C(COc1ccc2c(c1)CCC2)NS(=O)(=O)c1cccnc1 | - | -3.621
CC(NCCCc1cnn(C)c1)c1ccc(Br)s1 (centres unmarked) | -15.01 | 4.682
COCC(=O)NC(c1ccccc1)c1ccc2c(c1)CCCO2 (centres unmarked) | - | 21.9
Fc1ccc(CN2CCCN(Cc3cscn3)CC2)cc1 | -7.729 | 3.485
O=C(O)C(F)(F)F.[H][C@@]12CC(COCc3ccccn3)C[C@@]1([H])N(C(=O)c1ccno1)CCO2 (some centres unmarked) | -10.07 | -50.02
O=C(CCC1CCCO1)N1CCc2nc(-c3cnccn3)nc(O)c2C1 (centres unmarked) | -12.54 | -14.23
O=C(CCN1CCCCCC1c1ccco1)N1CCOCC1 (centres unmarked) | -46.28 | 7.051
Cc1ccc2c(n1)N(Cc1cccnc1)CCN(C(=O)C1CC=CC1)C2 | -5.783 | 19.36
CN(C)S(=O)(=O)N1CCC(c2nnc(C(F)(F)F)o2)CC1 | -20.38 | -13.45
C=C(Br)CN(C)C1CCN(CCc2ccccn2)CC1 | -16.26 | 10.94
CN(C)c1ncnc2c1CCN(CC1CCCC1)CC2.O=C(O)C(F)(F)F | - | 1.452
O=C(O)C(F)(F)F.[H][C@@]12CCN(c3ccc(C)nn3)[C@]1([H])CC[C@H](C(=O)NCc1ccco1)O2 | -0.9283 | -9.663
CC(C)(C)CCCC(=O)NS(=O)(=O)CC1CC1 | -18.59 | -2.456
Cc1ccccc1OC1CCN(C(=O)c2c[nH]c(=O)[nH]c2=O)CC1 | -5.581 | -7.561

Some entries from above, unchanged:

{"structure": "Cl.Cn1ccnc1CNC(=O)c1cncc(C2CCNCC2)n1", "A": -8.849, "B": 3.083}
{"structure": "CCc1c(C(=O)N2CCN(c3ncccn3)CC2)cnn1C(C)(C)C", "A": 7.099, "B": 8.977}
{"structure": "CCn1ncc2[nH]c(-c3cc(OC)c(OC)cc3OC)nc21", "A": -112.9, "B": 29.09}
{"structure": "CN(C)c1ncnc2c1CCN(CC1CCCC1)CC2.O=C(O)C(F)(F)F", "B": 1.452}
{"structure": "CC(C)N(CCNc1nc(C2CCCC2)nc2c1cnn2C)C(C)C", "A": -27.76, "B": 6.254}